## Results of single-concentration screens

By UniProt entry, the sequences of proteins in these tests, tags left out. Residues count along the entry.
UniProt Q4DA54, 1-478: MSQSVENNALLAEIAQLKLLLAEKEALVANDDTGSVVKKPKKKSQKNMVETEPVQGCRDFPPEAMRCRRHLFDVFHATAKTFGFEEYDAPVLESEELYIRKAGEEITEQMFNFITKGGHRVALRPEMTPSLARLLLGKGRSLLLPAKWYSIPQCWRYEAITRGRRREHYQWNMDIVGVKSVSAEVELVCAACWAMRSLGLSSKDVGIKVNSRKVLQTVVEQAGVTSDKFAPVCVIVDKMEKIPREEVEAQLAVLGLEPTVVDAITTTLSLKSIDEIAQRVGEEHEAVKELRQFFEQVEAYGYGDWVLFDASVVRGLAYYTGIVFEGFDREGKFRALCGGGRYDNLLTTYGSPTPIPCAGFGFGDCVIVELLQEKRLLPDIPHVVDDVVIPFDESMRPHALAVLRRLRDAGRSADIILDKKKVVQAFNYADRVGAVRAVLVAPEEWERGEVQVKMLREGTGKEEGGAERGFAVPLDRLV
UniProt P9WPC5, whole entry: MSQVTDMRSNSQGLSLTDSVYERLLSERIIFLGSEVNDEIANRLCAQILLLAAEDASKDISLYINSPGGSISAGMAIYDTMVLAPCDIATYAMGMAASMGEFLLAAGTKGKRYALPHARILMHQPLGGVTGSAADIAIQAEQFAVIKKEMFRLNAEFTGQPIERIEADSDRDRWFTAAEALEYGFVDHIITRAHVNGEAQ
UniProt P9WPC3, whole entry partner: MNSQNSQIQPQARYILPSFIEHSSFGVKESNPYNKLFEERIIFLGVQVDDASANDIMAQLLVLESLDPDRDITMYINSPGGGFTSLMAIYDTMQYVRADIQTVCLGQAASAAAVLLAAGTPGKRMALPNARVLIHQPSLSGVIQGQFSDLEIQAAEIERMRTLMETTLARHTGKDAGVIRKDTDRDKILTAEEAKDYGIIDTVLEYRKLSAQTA
UniProt Q8IDJ8, 1-583: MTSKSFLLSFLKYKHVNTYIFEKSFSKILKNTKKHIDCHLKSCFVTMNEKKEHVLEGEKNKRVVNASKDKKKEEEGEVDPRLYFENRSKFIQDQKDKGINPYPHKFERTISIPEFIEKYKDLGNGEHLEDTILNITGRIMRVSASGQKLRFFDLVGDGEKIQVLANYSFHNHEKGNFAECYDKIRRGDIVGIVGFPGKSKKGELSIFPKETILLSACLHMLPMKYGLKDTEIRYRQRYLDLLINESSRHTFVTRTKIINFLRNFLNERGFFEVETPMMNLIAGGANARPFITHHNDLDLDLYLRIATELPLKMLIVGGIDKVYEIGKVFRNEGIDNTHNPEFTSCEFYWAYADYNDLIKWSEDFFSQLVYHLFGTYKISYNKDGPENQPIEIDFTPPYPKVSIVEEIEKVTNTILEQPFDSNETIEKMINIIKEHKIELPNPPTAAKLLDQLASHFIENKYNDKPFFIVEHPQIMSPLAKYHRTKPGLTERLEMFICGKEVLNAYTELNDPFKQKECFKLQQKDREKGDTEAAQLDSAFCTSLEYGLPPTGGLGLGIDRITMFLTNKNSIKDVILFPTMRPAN
UniProt A4I591, 1-473: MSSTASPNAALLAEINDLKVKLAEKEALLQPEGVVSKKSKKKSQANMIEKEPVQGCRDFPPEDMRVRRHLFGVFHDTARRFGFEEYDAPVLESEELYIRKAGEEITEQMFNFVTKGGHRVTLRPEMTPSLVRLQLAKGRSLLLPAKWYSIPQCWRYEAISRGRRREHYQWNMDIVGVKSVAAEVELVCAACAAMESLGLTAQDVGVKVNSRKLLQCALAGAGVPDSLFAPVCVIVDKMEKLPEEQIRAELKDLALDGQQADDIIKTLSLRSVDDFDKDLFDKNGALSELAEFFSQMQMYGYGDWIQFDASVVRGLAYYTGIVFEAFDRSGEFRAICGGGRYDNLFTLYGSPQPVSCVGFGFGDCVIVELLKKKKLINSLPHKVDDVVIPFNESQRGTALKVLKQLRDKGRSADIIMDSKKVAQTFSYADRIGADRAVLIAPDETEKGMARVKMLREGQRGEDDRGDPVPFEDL

A: 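Enzyme assay of histidyl-tRNA synthetase; the read-out is not stated. Target: Histidine-tRNA ligase, Trypanosoma cruzi CL Brener (UniProt Q4DA54). Compounds at 30 µM. Higher reads as stronger inhibition (inferred: compounds with an IC50 in retests scored well above the rest). About 69,000 compounds were tested under these conditions; 0.045% (about 31) showed 50% or more at least once.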
B: 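ClpP1P2, Mycobacterium tuberculosis (UniProt P9WPC5 and UniProt P9WPC3). Protease assay of ClpP1P2, read by the AMC dye that it sets free. Compounds at 50 µM. Direction is inferred from only a few compounds that gave an IC50; most scored high, so higher reads as stronger inhibition. Most other retested compounds had strongly negative values. Size under these conditions: about 69,000 compounds, about 10 of them at 50% or above in at least one test.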
C: 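Enzyme assay of the cytosolic lysyl-tRNA synthetase in 384-well plates, read by luminescence. Target: Lysine-tRNA ligase, Plasmodium falciparum 3D7 (UniProt Q8IDJ8). Tested at 30 µM. Higher reads as stronger inhibition, judged from the few compounds that gave an IC50. About 69,000 compounds were tested under these conditions; 0.071% (about 49) showed 50% or more at least once.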
D: 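Histidine-tRNA ligase, Leishmania infantum (UniProt A4I591). Enzyme assay of histidyl-tRNA synthetase; the read-out is not stated. Tested at 30 µM. The record gives no direction; compounds that gave an IC50 in retests scored well above the rest, so higher reads as stronger inhibition. The assay is labelled LdHisRS but filed under L. infantum. Of about 69,000 compounds tested this way, about 410 (0.6%) reached 50% or more in at least one test.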

Each number is a percent effect as filed.
The record does not define 0% and 100%; most values in the screen are far below 50% and negative numbers occur (in some assays of this library far below -100).
The compounds are a random part of those screened.

Compound,A,B,C,D
Cc1cccnc1CC(C)NC1CCSCC1 (stereo unspecified),4.712,0.748,1.745,9.677
CCOC(=O)NC(CNC(=O)c1cccc(C)n1)CC(C)C (stereo unspecified),-2.326,-47.16,0.05562,18.03
CCc1ccc(NC(=O)C2CCN(C(=O)COC)CC2)cc1,2.02,-5.907,-2.479,4.918
CN1CCN(C(=O)c2cn(Cc3ccccc3)c3ncccc23)CC1,12.5,-6.777,4.778,17.82
CC1=N[C@@]2(CC[C@@H]3CN(CC(C)C)C[C@@H]32)C(=O)N1,0.5348,-1.997,5.749,14.53
COc1cc(NCC(c2ccccn2)N2CCOCC2)ncn1 (stereo unspecified),5.747,-6.023,4.814,17.95
Cc1nc2c(c(NCCc3nccs3)n1)CCN(CC1CC1)CC2,5.473,-2.309,-7.688,6.024
Cc1cccc(-c2nc(N)nc3c2CN(C(=O)c2cc(C)n[nH]2)C3C)c1 (stereo unspecified),2.062,13.96,3.312,16.48
Cc1cc(C(N)=O)nc(C2(C)CCCN2Cc2cnn(C)c2C)n1 (stereo unspecified),2.985,-5.777,-0.4531,5.263
CC(=O)Nc1cccc([C@H]2C[C@@H](NC(C)=O)CCO2)c1,3.03,-8.648,-0.3538,12.68
CCCN(C(=O)CCS(=O)(=O)Cc1ccccc1)c1cccc(C)c1,1.587,-7.885,0.471,11.76
Cc1ccc(-c2nnc(NC(=O)c3ccn(C)c(=O)c3)[nH]2)s1,12.05,-10.68,-0.7999,26
Cc1ccccc1S(=O)(=O)N1CCC(c2[nH]ncc2C)C1 (stereo unspecified),4.494,-7.918,0.9204,14
CCOCc1ccc(NC(=O)N2CCCC2c2nncn2C)cc1 (stereo unspecified),3.093,-14.74,-0.6527,1.099
O=C(CCc1ccc(Cl)s1)N1CCCC(n2cncn2)C1 (stereo unspecified),6.767,4.152,7.597,-14.61
Cc1cc(C2CCCN2C(=O)NCc2ccccn2)on1 (stereo unspecified),6.897,-5.093,4.263,16.13
O=C(c1cnccn1)N1CCN2C[C@H](OCc3ccccn3)C[C@H]2C1,0.5405,-2.599,-1.59,5.66
O=C(N[C@@H]1CCC[C@@H](N2CCOCC2)[C@@H]1O)c1cnn2cccnc12,5.224,-9.149,1.129,-3.158
Nc1cnc(-c2cccc3c2CCNC3)cn1,8.38,-1.764,3.444,21.05
CC(=O)NCCC(=O)N(C/C=C/c1ccccc1)CCO,0,-20.96,-0.5427,0.8333
CC(=O)N1CCO[C@@H]2CN(C(=O)c3cc(C)oc3C)CC[C@@H]2C1,9.392,4.376,-13.1,6.015
O=C(CSC1=NS(=O)(=O)c2cc(F)ccc2N1)Nc1cccc(Cl)c1,-20.65,-0.6395,0.7846,-47.57
CCn1cnnc1CNC(=O)NCC(c1cccs1)N1CCCC1 (stereo unspecified),0.7634,-0.6267,6.689,19.18
CC(C)c1noc(CCC(=O)NCC2CCC(C(N)=O)CC2)n1 (stereo unspecified),4.035,-17.82,0.1406,8.929
CN(Cc1cnn(C)c1)S(=O)(=O)N1CCc2ccccc2C1,4.255,12.28,2.774,0
O=C(Nc1cn[nH]c1)N(CCCO)C1CCc2ccccc21 (stereo unspecified),7.792,0.7133,0.8926,5
c1ccc2c(Cc3nnc([C@H]4CCN(C5CCCCC5)C4)o3)c[nH]c2c1,-0.4975,-1.535,2.947,21.62
CNc1nc2c(c(C(=O)N3CCCC3)n1)CN(Cc1nccn1C)CC2,0,4.672,1.109,17.14
COc1cc2c(nn1)CCN(Cc1nc(Cc3ccccc3)no1)C2,19.28,-3.716,4,28
O=C(CCCc1cn[nH]c1)N1C[C@@H](CN2CCCC2)C[C@H](CO)C1,-1.571,-2.158,-2.64,0
Cc1ccccc1-n1cnnc1SCC(=O)NCC1CCCO1 (stereo unspecified),0,9.37,-6.013,18.75
CN(Cc1cnn(-c2ccccc2)n1)CC1CCCN1c1cccnn1 (stereo unspecified),-5.303,-0.3233,4.428,43.94
Cc1ccc(N2CCO[C@H]3[C@H](OCC(=O)N4CCCC4)CC[C@@H]32)cc1,4.301,-7.251,3.691,21.05
CN(Cc1ccc(C(N)=O)cc1)c1ccc(C(F)(F)F)cn1,0,11.19,2.887,21.21
CCSc1cncc(N2CCC(C(=O)Nc3ccccn3)CC2)n1,6.667,-1.535,6.239,2.703
CNC(=O)c1cn[nH]c1C1(C)CCCN(Cc2ccccn2)C1 (stereo unspecified),2.985,-1.042,0.9908,5.263
NC(=O)NC(=O)CCSCc1coc(-c2ccc(F)cc2)n1,9,9.407,0.6051,18.37
CCNc1ncc(C(=O)NC2CCc3ccccc3C2)cn1 (stereo unspecified),4.938,-8.865,0.4412,-6.452
O=C(NCCCSC1CCCCC1)C1NCCc2[nH]cnc21 (stereo unspecified),0,-4.801,3.712,18.18
CN(C)[C@H]1CCCCN(C(=O)CCc2csc(N)n2)C1,2.479,-7.733,5.318,11.43
CC(C)OCCS(=O)(=O)N1CCCC1c1cccc(N(C)C)c1 (stereo unspecified),2.597,0.7282,-0.5905,5.714
CCn1nc(CC(C)C)cc1C(=O)N1CCCC(C#N)C1 (stereo unspecified),4.348,3.786,0.4583,12.12
CC1(C)CNC(=O)c2nc(CCCN3CCCC3)[nH]c2C1,-2.941,-16.86,3.358,16
CCC(CNS(N)(=O)=O)Oc1ccccc1F (stereo unspecified),0,6.762,6.086,16.44
O=C1CC[C@]2(CC[C@@H](NC(=O)NCc3cccnc3)CC2)N1,8.738,10.16,3.817,17.31
COCC(=O)N1Cc2ccnn2CC(COCCN(C)C)C1 (stereo unspecified),3.922,-19.13,5.428,5.714
COc1ccc(CN2C[C@H]3C[C@H](C(=O)Nc4cccnc4)[C@@H](C2)O3)cc1,-13.73,7.769,-1.679,10
O=C1C[C@H]2[C@@H](CCN2C(=O)Cc2ccccc2)N1Cc1cccnc1,3.883,16.12,0.8278,9.615
CCOC(C)c1nccn1CC(=O)Nc1cc(C)on1 (stereo unspecified),8.808,0.3409,3.606,7.865
COCC1CN(Cc2cc(C)on2)Cc2cnn(C)c21 (stereo unspecified),5.473,-2.695,5.365,16.67
NC(=O)N1CCCN(C2CCc3ccc(F)cc32)CC1 (stereo unspecified),-0.9852,-10.47,3.841,12.33
Cc1cccc(C(=O)NCCS(=O)(=O)Cc2ccccc2)c1,3.158,-7.991,3.854,8.219
CCOCC(=O)N1CCC(Cc2nnc(SC)n2C)CC1,-3.448,-8.704,1.581,-46.15
Cc1cnc(CNCc2cnc(-c3ccccc3C)s2)cn1,11.36,-5.973,4.437,11.67
O=C1OCCN1CCSc1nnnn1CC(F)(F)F,1.149,3.608,6.083,10.26
Cc1cc(CN(C)C(=O)NCc2ccnc(SC(C)(C)C)c2)no1,2.041,2.469,-1.061,2.778
O=C(NC1CC1)c1cc(NC(=O)N2CCSCC2)ccc1Cl,-0.9804,-25.03,-1.464,11.2
O=C(NC1CC1)N1CCn2c(Cn3cccn3)cnc2C1,6.897,-7.847,-3.762,8.824
Fc1cccc(-n2ccc(CN3CCCC3Cn3cncn3)n2)c1 (stereo unspecified),3.458,-26.68,0.8858,12.5
CN(CCOc1ccc(Cl)cc1)Cc1ccc(S(=O)(=O)N(C)C)o1,12.87,9.749,-3.07,9.524
CCS(=O)(=O)c1ccc2oc([C@H]3CCN(Cc4cccnc4)C3)nc2c1,-0.4975,6.202,2.799,24.32
Cc1ccn(CCC(=O)NCc2ccco2)n1,3,-5.938,5.218,2.74
Cc1cc(C)n(CC2CCCN2C(=O)CCc2cscn2)n1 (stereo unspecified),-1.141,2.036,0.958,18.4
Cn1cc(C(=O)N2C[C@H]3C[C@H](Oc4ccccc4)C[C@H]3C2)cn1,8.046,-10.32,-0.05695,12.95

For reference, 5 entries once more:

| Compound | A | B | C | D |
|---|---|---|---|---|
| `COCC1CN(Cc2cc(C)on2)Cc2cnn(C)c21` (stereo unspecified) | 5.473 | -2.695 | 5.365 | 16.67 |
| `Fc1cccc(-n2ccc(CN3CCCC3Cn3cncn3)n2)c1` (stereo unspecified) | 3.458 | -26.68 | 0.8858 | 12.5 |
| `Cc1ccc(-c2nnc(NC(=O)c3ccn(C)c(=O)c3)[nH]2)s1` | 12.05 | -10.68 | -0.7999 | 26 |
| `Cc1cccc(C(=O)NCCS(=O)(=O)Cc2ccccc2)c1` | 3.158 | -7.991 | 3.854 | 8.219 |
| `c1ccc2c(Cc3nnc([C@H]4CCN(C5CCCCC5)C4)o3)c[nH]c2c1` | -0.4975 | -1.535 | 2.947 | 21.62 |

Measurements from “University of Dundee, Small-Polar-MMV Screening Library” (2021), ChEMBL document CHEMBL3988442.